From patent US20250326838A1
No constants are given. Whether binding was seen depends on the method and setting. Some binding calls cover weakened binding; strength is not graded here.

Experiments:
[1] = molecular target: His-tagged cynomolgus monkey Siglec15 protein (cynomolgus monkey); experiment: ELISA, plate coated with His-tagged cynomolgus monkey Siglec15
[2] = molecular target: His-tagged cynomolgus monkey Siglec15 protein (cynomolgus monkey); experiment: ELISA, His-tagged cynomolgus monkey Siglec15 coated

| binding [1] | binding [2] | Binder |
| --- | --- | --- |
| binds | binds | 14A7 monoclonal antibody (antibody, V domains shown) VH: DVQLQESGPGLVKPSQSLSLTCTVTGYSITSDFAWNWIRQFPGNKLEWMGYIRFSGSTTYKPTLKSRISITRDTSKNQFFLQLNSVTTEDSATYYCAREDYDGLFDYWGQGTTLTVTS VL: DVLMTQTPLSLPVSLGDHASISCRSSQTILHSNGNTYLDWYLQKPGQSPKLLIYKVSNRFSGVPDRFSGSGSGTDFTLKISRVEAEDLGVYYCFQGSHVPYTFGGGTKLEIK |
| binds | binds | 1-7F4 monoclonal antibody (antibody, V domains shown) VH: EVQLQQSGPELVKPGASVKMSCKASGYTFTTYVMHWVKQKPGQGLEWIGYINPYNDKTKYNEKFKGKATLTSDKSSSTAYMEVSRLTSEDSAVYYCGSGYDAMDYWGQGTSVTVSS VL: DIQMTQSPASLSVSVGETVTITCRASENIYSHLAWYQQKQGKSPQLLIYSATNLADGVPSRFNGSGSGTQYSLKINSLQSEDFGSYYCQHFWGTPWTFGGGTKLEIK |
| binds | binds | 1-15D1 monoclonal antibody (antibody, V domains shown) VH: EVQLQQSGPELVKPGASVKMSCKASGYTFTTYVMHWVKQKPGQGLEWIGYINPYNDNTKYNEKFKGKATLTSDKSSSTAYMELSSLTSEDSAVYYCGSGYDAMDYWGQGTSVTVSS VL: DIQMAQSPASLSVSVGETVTITCRTSENIYSHLAWYQQKQGKSPQLLVYSATNLADGVPSRFNGSGSGTQYSLKINSLQSEDFGSYYCQHFWGTPWTFGGGTKLEIK |
| binds | binds | 1-10E5 monoclonal antibody (antibody, V domains shown) VH: DVKLVESGGGLVKPGGSLKLSCVVSGLTFSRYTMSWVRQTPEKRLEWVATISSGGNSTYYPDSVKGRFTISRDDAKDTLYLQMSSLKSEDTAMYYCTNYGYFFDYWGQGTTLTVSS VL: DIQMTQSPASLSASVGETVTITCRASENIYSFLAWYQQKQGKSPQLLVYNAKTLAEGVPSRFSGSGSGTQFSLKINSLQPEDFGSYYCQHHYDRPLTFGAGTKLELK |
